{"sequences": {"note": "Protein sequences, listed by entry. Tags and fused reporters are not part of them.", "UniProt P49137, whole entry, looked up": "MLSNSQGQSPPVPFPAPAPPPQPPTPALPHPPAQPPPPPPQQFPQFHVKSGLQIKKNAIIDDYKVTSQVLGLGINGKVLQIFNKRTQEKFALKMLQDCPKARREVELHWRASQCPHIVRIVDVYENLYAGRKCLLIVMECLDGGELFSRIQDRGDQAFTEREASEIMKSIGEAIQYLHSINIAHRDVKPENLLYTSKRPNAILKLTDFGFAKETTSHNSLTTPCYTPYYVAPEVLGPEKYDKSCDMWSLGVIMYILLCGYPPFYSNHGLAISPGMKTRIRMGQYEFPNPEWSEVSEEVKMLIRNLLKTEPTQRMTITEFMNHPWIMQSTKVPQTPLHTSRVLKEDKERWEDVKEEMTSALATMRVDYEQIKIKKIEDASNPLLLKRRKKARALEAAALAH"}, "source": "the supplement of paper PMC12823440", "about": "“Inhibitors supercharge kinase turnover through native proteolytic circuits” (Nature, 2025)", "note": "Structures can show the parent of a compound that is named as a salt. This is one part of the list. The calls rarely recur for the same compound in another form.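 Kinases were expressed as nanoluciferase fusions in K562 cells and luminescence was read every 4 h between 2 and 18 h as percent of control, DMSO set to 100% and a positive control to 0%. A time point counts as decreased when the signal drops significantly (2 sigma). The hit call is the authors' own, does not follow from the count of time points alone, and its rule is not shown.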", "data": [{"target": "MAPKAPK2 (UniProt P49137)", "test": "number of time points (of 5) at which kinase-Nluc abundance scored as decreased, DMSO-normalised (count); higher = more persistent destabilization", "details": "K562; 2-18 h", "values": [{"smiles": "FC(F)(c1ccc2ncccc2c1)c1nnc2ccc(-c3ccncc3)nn12", "note": "(10 µM)", "number of time points": 0}, {"smiles": "COc1ccc(-c2ccc3c(N4CCOCC4)nc(N4C[C@@H](C)O[C@@H](C)C4)nc3n2)cc1CO", "note": "(2.5 µM)", "number of time points": 0}, {"smiles": "C=CC(=O)Nc1ccc(CN2C(=O)N(c3cc(OC)cc(OC)c3)Cc3cnc(Nc4ccc(N5CCN(C)CC5)cc4)nc32)cc1", "note": "(2.5 µM)", "number of time points": 0}, {"smiles": "O=C1NC(=O)/C(=C\\c2cccc(C(F)(F)F)c2)S1", "note": "(2.5 µM)", "number of time points": 0}, {"smiles": "CN(C)C(=O)Cn1cc(-c2ccc(-c3cncc4ccccc34)cc2)cn1", "note": "(10 µM)", "number of time points": 0}, {"smiles": "COc1ccccc1-c1cc(Nc2cccc(CS(N)(=O)=O)c2)ncn1", "note": "(10 µM)", "number of time points": 0}, {"smiles": "C[C@@H]1COCCN1c1cc(C2([S@@](C)(=N)=O)CC2)nc(-c2ccnc3[nH]ccc23)n1", "note": "[(S)-Ceralasertib] (10 µM)", "number of time points": 0}, {"smiles": "c1cc(-c2c[nH]c3nccc(N4CCC[C@@]5(CCCCN5)C4)c23)ncn1", "note": "(10 µM)", "number of time points": 0}, {"smiles": "Cc1ccc2nc(NCCN)c3ncc(C)n3c2c1", "note": "(2.5 µM)", "number of time points": 0}, {"smiles": "C=CC(=O)Nc1cccc(Nc2nc(Nc3ccc(NC4CN(CCF)C4)cc3OC)ncc2C(F)(F)F)c1", "note": "(2.5 µM)", "number of time points": 0}, {"smiles": "COc1ncc(Cl)cc1S(=O)(=O)Nc1ccc(F)c(C#Cc2cnc(N)nc2)c1F", "note": "(2.5 µM)", "number of time points": 0}, {"smiles": "C=CC(=O)Nc1cccc(Nc2nc(Nc3ccc(N4CCN(C(C)=O)CC4)cc3OC)ncc2C(F)(F)F)c1", "note": "[Rociletinib hydrobromide] (10 µM)", "number of time points": 0}, {"smiles": "C[C@@]1(c2ncncc2F)NC(=O)c2cc(-c3cn[nH]c3)ccc21", "note": "(10 µM)", "number of time points": 0}, {"smiles": "Cc1[nH]c(/C=C2\\C(=O)Nc3ccc(F)cc32)c(C)c1C(=O)N[C@H]1CCN(C(=O)N(C)C)C1", "note": "[Vorolanib] (10 µM)", "number of time points": 0}, {"smiles": "NC(=O)c1ccc(-c2nc(-c3ccc4c(c3)OCCO4)c(-c3ccccn3)[nH]2)cc1", "note": "(10 µM)", "number of time points": 0}, {"smiles": "Cc1ccc2cc(-c3c(C)ccc(C(=O)c4c(-c5ccccc5)n(C)n(-c5ccccc5)c4=O)c3N)ccc2n1", "note": "(2.5 µM)", "number of time points": 0}, {"smiles": "OCCn1cc(-c2ccc3c(c2)CC/C3=N\\O)c(-c2ccncc2)n1", "note": "(10 µM)", "number of time points": 0}, {"smiles": "NCCNS(=O)(=O)c1cccc2c(Cl)cccc12", "note": "[A-3 (hydrochloride)] (10 µM)", "number of time points": 0}, {"smiles": "COc1cccc(OC)c1C(=O)OCc1cc(O)ccc1O[C@@H]1O[C@H](CO)[C@@H](O)[C@H](O)[C@H]1O", "note": "[Curculigoside] (10 µM)", "number of time points": 0}, {"smiles": "CC#CC(=O)N1CC[C@@H](n2c(=O)n(-c3ccc(Oc4ccccc4)cc3)c3c(N)ncnc32)C1", "note": "[Tirabrutinib] (10 µM)", "number of time points": 0}, {"smiles": "CC1=C(C(=O)O)N2C(=O)[C@@H](NC(=O)[C@H](N)C3=CCC=CC3)[C@H]2SC1", "note": "[Cephradine] (10 µM)", "number of time points": 0}, {"smiles": "CC(C)(C)c1nc(-c2cccc(NS(=O)(=O)c3c(F)cccc3F)c2F)c(-c2ccnc(N)n2)s1", "note": "[Dabrafenib] (2.5 µM)", "number of time points": 0}, {"smiles": "COc1cc2c(N3CCN(C(=O)Nc4ccc(OC(C)C)cc4)CC3)ncnc2cc1OCCCN1CCCCC1", "note": "[Tandutinib] (10 µM)", "number of time points": 0}, {"smiles": "Nc1cc(C(F)(F)F)c(-c2cc(N3CCOCC3)nc(N3CCOCC3)n2)cn1", "note": "[Buparlisib (Hydrochloride)] (2.5 µM)", "number of time points": 0}, {"smiles": "Cn1cc(-c2ccc3c(c2)CCN3C(=O)Cc2cccc(C(F)(F)F)c2)c2c(N)ncnc21", "note": "(2.5 µM)", "number of time points": 0}, {"smiles": "O=C1NC(=O)/C(=C/c2ccc3nccnc3c2)S1", "note": "(10 µM)", "number of time points": 0}, {"smiles": "Cn1ncc(Cl)c1-c1cc(C(=O)N[C@H](CN)Cc2ccc(F)c(F)c2)oc1Cl", "note": "[Uprosertib] (10 µM)", "number of time points": 0}, {"smiles": "COCCNc1nc2ccc(C#CC3(O)CCCCC3)cc2n1-c1ccnc(N)n1", "note": "(10 µM)", "number of time points": 0}, {"smiles": "CC(=O)NC1CC(n2cnc(NC(=O)Cc3ccc4ccccc4c3)c2)C1", "note": "(centres undefined) (10 µM)", "number of time points": 0}, {"smiles": "COc1cc(Nc2ncc(F)c(Nc3ccc4c(n3)NC(=O)C(C)(C)O4)n2)cc(OC)c1OC", "note": "(10 µM)", "number of time points": 0}, {"smiles": "C=C(CC[C@@H](C(=O)O)[C@H]1[C@H](O)C[C@@]2(C)C3=C(CC[C@]12C)[C@@]1(C)CC[C@H](OC(C)=O)C(C)(C)[C@@H]1CC3)C(C)C", "note": "[Pachymic acid] (10 µM)", "number of time points": 0}, {"smiles": "O=C(NOCC(O)CO)c1cc(Br)c(F)c(F)c1Nc1ccc(I)cc1F", "note": "(centres undefined) (2.5 µM)", "number of time points": 0}, {"smiles": "Nc1nc2ccc(Cl)cc2c2nc(-c3ccco3)nn12", "note": "(10 µM)", "number of time points": 0}, {"smiles": "O=C(CSC1=NCCN1)NC1CCCCCC1", "note": "[ICCB-19 (hydrochloride)] (2.5 µM)", "number of time points": 0}, {"smiles": "O=Nc1c(-c2c(O)[nH]c3ccc(I)cc23)[nH]c2ccccc12", "note": "[5-Iodo-indirubin-3'-monoxime] (10 µM)", "number of time points": 0}, {"smiles": "Nc1nc(F)nc2c1ncn2[C@@H]1O[C@H](CO)[C@@H](O)[C@@H]1O", "note": "[Fludarabine] (10 µM)", "number of time points": 0}, {"smiles": "Cc1cc(=O)oc2c(C=O)c(O)ccc12", "note": "(10 µM)", "number of time points": 0}, {"smiles": "C[C@@H]1CC[C@@H](Nc2nc(NC(C)(C)C)ncc2C(N)=O)C[C@H]1O", "note": "(10 µM)", "number of time points": 0}, {"smiles": "NC(=O)c1nc(Nc2ccccc2)sc1NC(=O)C1CCCCC1", "note": "(10 µM)", "number of time points": 0}]}]}
